PubChem BioAssay AID1508588, Peter MacCallum Cancer Centre | 2020
This is an unselected part of about 18,000 reagents tested. 790 of them (4.4%) count as active. 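Calls rest on a combination of fold-change classes in drug and vehicle arms, not all shown here.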 Unmarked entries are inactive. Some reagents were tested in more than one well and are listed for each. No sequences are given here.

- Aim: 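Knock-downs boosting vemurafenib effects on melanoma cell growth or lactate release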 (primary screen)
- Cells: human WM266.4 melanoma cells (BRAF V600 mutant)
- Reagent: siRNA pool against human genes, 40 nM
- Timing: 96 h from transfection to read-out
- Conditions: vemurafenib 300 nM (about IC25), added 48 h after transfection, for 48 h; comparison arm got DMSO vehicle only
- Measured: 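Ratios to non-targeting siRNA for cell gain, counted as DAPI nuclei after minus before drug and averaged over two replicates, and for absorbance-read medium lactate per cell; both binned into fold-change classes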
- Scale: cell gain with vemurafenib: higher = more cell gain than with non-targeting siRNA; lactate per cell with vemurafenib: higher = more lactate made per cell
- Call rule: 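Enhancement is called by pairing each knock-down's vehicle-arm and drug-arm fold-change classes for viability or glycolysis; which class combinations qualify is not given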
- Meaning of the calls: active = enhances vemurafenib effect; inactive = no enhancement seen

| gene | cell gain with vemurafenib | lactate per cell with vemurafenib |
| --- | --- | --- |
| OR4Q3 | 1.15 | 0.5 |
| FKBP3 | 0.44 | 0.86 |
| STK11 | 0.2 | 1.22 |
| HES7 | 0.57 | 1.27 |
| ARHGEF5 | 0.42 | 1.27 |
| NMNAT2 | 0.68 | 1.33 |
| HRH2 | -0.08 | 3.79 |
| BCCIP | 0.41 (active) | 0.46 |
| IL6ST | 0.25 | 0.22 |
| NUP155 | 0.49 | 0.72 |
| FUNDC2 | 0.63 | 0.72 |
| USP26 | 0.66 | 1.19 |
| CCDC178 | 0.28 | 0.77 |
| SPACA5 | 0.73 | 0.68 |
| ZNF346 | 0.46 | 0.78 |
| KCTD16 | 0.89 | 0.75 |
| RPL31 | -0.09 | 4.79 |
| TDRD1 | 0.67 | 0.9 |
| GSTZ1 | 0.94 | 0.59 |
| SPATA2L | 0.26 | 1.81 |
| HLA-G | 0.48 | 0.43 |
| TIMM29 | 0.41 | 1.73 |
| TIMP4 | 0.95 (active) | 0.18 |
| ELAC2 | 0.47 | 1.1 |
| DCLK3 | 0.93 | 0.64 |
| SLC9B1 | 0.95 | 0.62 |
| CCK | 0.44 | 0.96 |
| CDK5RAP2 | 0.55 | 0.94 |
| ABHD18 | 1.15 | 0.94 |
| SCEL | 0.74 | 1.13 |
| KRTAP10-9 | 0.82 | 0.76 |
| CLEC3B | 0.64 | 1.52 |
| IKBKG | 0.64 | 1.71 |
| HADHB | 0.69 | 0.76 |
| BDKRB2 | 0.84 | 0.98 |
| S100A7P3 | 0.44 | 1.02 |
| LRIT2 | 0.63 | 1.12 |
| RASAL2 | 0.39 | 1.38 |
| RABGAP1 | 0.27 | 1.64 |
| LEO1 | 0.65 | 0.98 |
| GRIK4 | 0.29 | 2.04 |
| PLEC | 1.06 (active) | 0.38 |
| ATXN1 | 0.97 | 0.96 |
| OTOF | 0.58 | 0.56 |
| RFPL4A | 1.02 | 0.73 |
| ARSH | 0.78 | 0.52 |
| ZNF750 | 0.71 | 1.19 |
| TMEM126B | 0.77 | 1.09 |
| SLC47A2 | 0.21 | 0.57 |
| LAPTM5 | 0.65 | 1 |
| NLGN4X | 0.69 | 0.54 |
| DNM3 | 0.69 | 0.82 |
| MYH13 | 0.57 | 1.31 |

Taken from above.
Entry for HES7 in “cell gain with vemurafenib”: 0.57
For “lactate per cell with vemurafenib”, ARSH reads 0.52
Value of ELAC2 in “lactate per cell with vemurafenib”: 1.1
For “cell gain with vemurafenib”, RASAL2 has 0.39
Under “lactate per cell with vemurafenib”, FUNDC2 shows 0.72

Further records:
| gene | cell gain with vemurafenib | lactate per cell with vemurafenib |
| --- | --- | --- |
| ARTN | 0.66 | 0.99 |
| GATA4 | 0.61 | 0.91 |
| MAP2K4 | 0.73 | 1 |
| IRF9 | 0.26 | 1 |
| ZNF524 | 0.65 | 1.11 |
| HCN2 | 0.46 | 1.7 |
| TRAF3IP3 | 0.58 | 0.68 |
| GSTA4 | 0.83 | 0.9 |
| NMD3 | 1.15 | 0.72 |
| TMEM208 | 0.69 | 1.38 |
| VPS39 | 0.88 | 0.46 |
| UBE2L6 | 0.78 | 1.2 |
| TIPRL | 0.6 | 2 |
| CCT7 | 0.2 | 1.03 |
| UBD | 0.82 | 0.9 |
| ACTRT3 | 0.88 | 0.91 |
| SORBS3 | 0.51 | 0.21 |
| KLHL35 | 0.43 | 0.88 |
| ZNF749 | 1.62 | 0.81 |
| ZNF829 | 0.59 (active) | 0.44 |
| FSAF1 | 0.37 (active) | 0.39 |
| MED14 | 0.55 | 0.97 |
| PLXNA4 | 0.13 | 0.73 |
| PLXNA4 | 0.09 | 1.6 |
| PPM1L | 0.39 | 1.88 |
| EREG | 0.27 | 1.28 |
| HNRNPDL | 0.89 | 0.73 |
| PRAP1 | 0.31 | 1.92 |
| FBXO47 | 0.85 | 1.04 |
| TYMS | 0.47 | 0.98 |
| COG7 | 0.68 | 0.96 |
| HNRNPU | 0.49 | 0.65 |
| ABTB1 | 0.87 | 0.36 |
| AGPAT1 | 0.81 | 0.78 |
| KIF3A | 0.55 | 0.82 |
| KDM6A | 0.84 | 1.11 |
| SART1 | 0.27 | 1.01 |
| AIFM2 | 0.08 | 2.62 |
| CCM2 | 0.38 | 0.66 |
| CAMSAP1 | 0.86 | 0.72 |
| NANS | 0.16 | 1.64 |
| DUX4L1 | 0.58 | 1.23 |
| ZMPSTE24 | 0.88 | 0.56 |
| POLK | 0.51 | 1.12 |
| CYP21A2 | 0.68 | 0.67 |
| SCNN1G | 1.01 | 0.84 |
| CST4 | 0.61 | 1.17 |
| MEX3C | 0.98 | 1.14 |
| ZNF280B | 0.48 | 0.77 |
| CHMP5 | 0.83 | 0.74 |
| HIPK3 | 0.67 | 0.78 |
| HSPH1 | 0.43 | 1.78 |
| STK38L | 0.52 | 1.74 |
| ZNF417 | 1.06 | 0.46 |
